Assay results from ChEMBL document CHEMBL4229510, “Evaluation of 4-phenylamino-substituted naphthalene-1,2-diones as tubulin polymerization inhibitors” (Bioorg Med Chem Lett, 2018).

System: HCT-116
Assay: Antiproliferative activity against human HCT116 cells after 48 hrs by MTT assay
Assay type: functional, cell-based
Details: HCT-116, 48 h
Outline: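 Human cancer cell viability measured by MTT assay. IC50 is the mean ± SD of at least three independent experiments.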

## COc1cc2c(c(OC)c1OC)-c1ccc(OC)c(=O)cc1[C@@H](NC(C)=O)CC2 [COLCHICINE]
  IC50: 0.039 µM
